Results: PubChem BioAssay AID540276 (National Center for Advancing Translational Sciences (NCATS), 2011)
Where “and” joins values, the source holds several entries; their conditions need not be identical. Identical values can stand only once. Screen size: about 300,000 compounds; about 5,400 (1.8%) were called active. Inconclusive means that the source gave no clear call. Such entries were picked first, then a sample of the others. Calls follow the shape of the full dose curve; tested in HEK293 cells. Where the call is inconclusive, the potency comes from a doubtful curve fit.

Assay: qHTS for inhibitors of binding or entry into cells for Marburg Virus
Conditions: Marburg virus pseudotyped entry inhibition, cell reporter; series mostly up to 37.8 µM
Potency is read from the fitted curve at half-maximal effect.

Compound	Potency
Cc1cc(=O)oc2cc(OCC#N)ccc12	inactive
CCCCCCCOc1ccc(OC(=O)c2cccnc2)cc1	inactive
Oc1ccc(N2CCN(Cc3ccc(OCCCN4CCCCC4)cc3)CC2)cc1	active: 12.6 µM
Cc1ccc(NC(=O)C2c3ccccc3Oc3ccccc32)nc1	inconclusive: 10 µM [inhibitor, partial curve, poor fit]
CCOc1nc(-c2ccc(C)cc2)ccc1-c1noc(COC)n1	inactive
COc1cc(CN2CCC(n3nccc3NC(=O)C3CC3)CC2)cc(OC)c1	inactive
COc1cccc(C(c2nnnn2Cc2ccco2)N2CCN(c3cccc(C)c3C)CC2)c1OC (centres undefined)	inactive and inconclusive: 22.4 µM [inhibitor, partial curve, poor fit]
CC1CCCC(C)N1C(=O)COC(=O)CCC(=O)c1cccs1 (centres undefined)	inactive
CCCOc1ccc2c3c(c(=O)oc2c1OCCC)CCCC3	inconclusive: 35.5 µM [inhibitor, single point]
CCS(=O)(=O)N1Cc2ccccc2CC1C(=O)Nc1ccc(F)c(F)c1 (centres undefined)	inactive
CCOc1ccc(C2N3CC4(C(C)C)CN2CC(C(C)C)(C3)C4=O)cc1OC (centres undefined)	inactive
c1ccc([C@@H]2CN3CCSC3=N2)cc1	inconclusive: 3.26 µM [activator, single point] and inconclusive: 562 nM [inhibitor, full curve, poor fit]
C/C(CC(=O)Nc1cccc(C(F)(F)F)c1)=N\NC(=O)Cc1ccccc1	inconclusive: 35.5 µM [inhibitor, single point]
O=C(COC(=O)C1CCN(c2ccc(C(F)(F)F)cn2)CC1)c1ccccc1Cl	inconclusive: 15.8 µM [inhibitor, single point]
COc1cccc(-n2c(SCC(=O)N3CCOCC3)nc3c([nH]c4ccccc43)c2=O)c1	inconclusive: 10.3 µM [inhibitor, partial curve, poor fit]
COc1ccc(/C=C(\C#N)C(=O)Nc2ccccn2)cc1	inactive
CC1(C)COC(c2ccc(F)c([N+](=O)[O-])c2)=N1	inconclusive: 15.8 µM [inhibitor, single point]
CCOC(=O)CN(c1cc([N+](=O)[O-])ccc1OC)S(C)(=O)=O	inconclusive: 1.78 µM [inhibitor, partial curve, poor fit]
O=C(CSc1nc(=O)n2ccccc2n1)N1CCCc2ccccc21	inconclusive: 1.26 µM [inhibitor, partial curve, poor fit]
CCn1c(=O)c2c(nc3n2CCN3c2ccccc2)n(C)c1=O	inconclusive: 6.31 µM [inhibitor, single point]
Cc1ccc(-c2nc3ccccn3c2Nc2ccc3c(c2)OCCO3)s1	inconclusive: 2.24 µM [activator, partial curve, poor fit]
Cc1cc(C(=O)CSc2nnc(-c3ccc(Cl)cc3)n2C)c(C)n1CC1CCCO1 (centres undefined)	inactive

Compound	Potency
COc1cc2c(cc1OC)C1O[C@](CCCCN3C(=O)c4ccccc4C3=O)(C2)OC2=C1C(=O)CCC2	inconclusive: 0.15 µM [activator, partial curve, poor fit]
COCCNC(=O)/C(C#N)=C/c1c(F)cccc1Cl	inactive
CCN(C(=O)C1CCC(CNS(=O)(=O)c2cccc3nsnc23)CC1)c1cccc(C)c1 (centres undefined)	inconclusive: 35.5 µM [inhibitor, single point]
c1ccc(CCn2nnnc2C(c2cccs2)N2CCN(Cc3ccc4c(c3)OCO4)CC2)cc1 (centres undefined)	inconclusive: 8.91 µM [inhibitor, partial curve, poor fit]
O=C(CCn1nc(-c2ccccc2)ccc1=O)N1CCCC1	inactive
CC1(C)CC(=O)c2cc(C(=O)Nc3ccc(Br)cc3)c(=O)[nH]c2C1	inconclusive: 5.62 µM [activator, single point]
CCN(C(=O)C1CCC(CNS(=O)(=O)c2cccc3nsnc23)CC1)c1ccccc1 (centres undefined)	inactive
Cc1ccc(S(=O)(=O)N(C(=O)c2ccncc2)c2ccc3oc4c(c3c2)CCCC4)cc1[N+](=O)[O-]	inconclusive: 31.6 µM [inhibitor, single point]
O=C(Nc1ccc2oc(-c3cccc(F)c3)nc2c1)c1ccccc1F	inactive
O=C(NCc1cccnc1)c1ccc(Cl)c(S(=O)(=O)N2CCCCCC2)c1	inconclusive: 1.78 µM [inhibitor, full curve, poor fit]
Cc1ccc(Oc2nc3c(c(=O)n(Cc4ccccc4)c(=O)n3C)n2C)cc1C	inconclusive: 35.5 µM [inhibitor, single point]
COc1cccc(-c2ccnc3c(-c4ccc(F)cc4)c(C)nn23)c1	inconclusive: 2 µM [activator, single point]
O=C(O)c1nn2c(C(F)(F)F)cc(-c3cccs3)nc2c1Cl	inconclusive: 0.562 µM [inhibitor, full curve, poor fit]
COc1ccc(N(C(=O)c2cccc(OC)c2OC)C2C=CS(=O)(=O)C2)c(OC)c1 (centres undefined)	inactive
CCN(CC)S(=O)(=O)c1cccc(C(=O)/C=C2/N(C)c3ccccc3C2(C)C)c1	inconclusive: 35.5 µM [inhibitor, partial curve, poor fit]
OC(CN1CCN(Cc2ccccc2)CC1)Cn1c2ccccc2c2ccccc21 (centres undefined)	inconclusive: 35.5 µM [inhibitor, single point]
CNCc1ccccc1Sc1ccc(O)c(O)c1	inconclusive: 0.112 µM [inhibitor, full curve, poor fit]
COC1=CC(=O)OC(c2ccc(OC)cc2)C1 (centres undefined)	inactive
COc1ccc(S(=O)(=O)N2CCOC23CCN(S(C)(=O)=O)CC3)cc1	inconclusive: 7.94 µM [activator, partial curve, poor fit]
O=C(NCc1n[nH]c(=S)n1-c1ccc([N+](=O)[O-])cc1)c1ccc(S(=O)(=O)N2CCOCC2)cc1	inactive
CCOc1ccc(NCCC#N)cc1	inconclusive: 35.5 µM [inhibitor, single point]
O=C(Nc1ccccc1)C1C2CCCCC21 (centres undefined)	inactive
